# Measurements reported in PubChem BioAssay AID1259405 (NCATS, 2018).
# Assay: 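Knock-downs that lift recombinant protein yield in hamster ovary cells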 (primary screen)
# Cells: Chinese hamster CHO-K1 ovary cells with stable secreted eGFP expression
# Knock-down reagent: single siRNA against mouse genes, 0.8 pmol siRNA per well (2 µl of 400 nM stock)
# Duration: 3 days
# Measured: 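Percent of the per-plate non-targeting control median for intracellular GFP per well by laser scanning cytometry and for cell viability by ATP luminescence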
# Reading the numbers: GFP, % of control: higher = more GFP per well, higher productivity; viability (ATP), % of control: higher = more viable cells (more ATP)
# Rule for the call: 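a knock-down is called active if GFP reaches 120% or more of non-targeting control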
# The whole screen tested about 50,000 reagents; below is a random part of them. About 4,000 of them (8%) count as active. 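Mouse siRNA library applied to hamster cells; one well for each siRNA.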 Unmarked entries are inactive.
"GFP, % of control","viability (ATP), % of control",target gene,PubChem SID
90.8,91.7,Eed,SID363539613
90.8,67.2,Eed,SID363560914
141 (active),74.4,Eed,SID363565004
94.5,108,Rab9b,SID363570080
77.4,54.6,Rab9b,SID363576416
36.9,35.2,Rab9b,SID363579584
145 (active),50,Ddr1,SID363544227
99.6,87.1,Ddr1,SID363550555
96.7,98.9,Ddr1,SID363557104
45.1,66.9,Adig,SID363547079
62.6,115,Adig,SID363549891
93.7,122,Adig,SID363587945
72.8,66.5,Krt222,SID363540958
54.9,65.7,Krt222,SID363555585
79.7,60.8,Krt222,SID363565874
121 (active),95.8,Oas1h,SID363545202
44.2,62.1,Oas1h,SID363548715
54,54.9,Oas1h,SID363562521
15.1,15.7,Sowaha,SID363542697
102,79.8,Sowaha,SID363546214
80.8,80.4,Sowaha,SID363547970
45.2,20.8,Chrm2,SID363571255
58.9,60,Chrm2,SID363571607
60,59.6,Chrm2,SID363571959
43.5,48.3,Espn,SID363572445
85.8,92.6,Espn,SID363574205
106,70.4,Agbl1,SID363545339
62.4,78.1,Agbl1,SID363548852
59.2,57.6,Agbl1,SID363562658
71.7,65.6,Rps16,SID363554081
53.1,22.8,Rps16,SID363562038
77.3,71.4,Rps16,SID363565776
74.9,100,Ndufb7,SID363581878
100,73.5,Ndufb7,SID363589372
57.5,62.3,Cd33,SID363544381
76.3,88.3,Cd33,SID363550709
75,49.6,Cd33,SID363557258
159 (active),123,Gpr75,SID363581940
64.9,58.4,Gpr75,SID363589434
103,90.8,Cirsr,SID363543507
88.2,91.1,Cirsr,SID363553000
50,76.5,Cirsr,SID363558848
71.9,81.2,Tapt1,SID363542362
103,89.5,Tapt1,SID363551853
79.7,65.6,Tapt1,SID363559458
88.9,99.6,Fam53c,SID363543702
38,78.2,Fam53c,SID363551438
82.5,76.1,Fam53c,SID363559043
94,56.1,Treml1,SID363556266
91.8,74.8,Treml1,SID363586716
44.4,46.7,Treml1,SID363588824
53.4,75.6,S100b,SID363582474
85.7,83.1,S100b,SID363584234
58.5,52.5,Gcn1,SID363555404
42.1,51.1,Gcn1,SID363564065
47.8,80.6,Gcn1,SID363587611
50.8,64.8,Npy2r,SID363571205
77,60.7,Npy2r,SID363571557
76.7,65.6,Npy2r,SID363571909

5 entries from above, ordered by “GFP, % of control”, highest first:
"GFP, % of control","viability (ATP), % of control",target gene,PubChem SID
106,70.4,Agbl1,SID363545339
85.8,92.6,Espn,SID363574205
60,59.6,Chrm2,SID363571959
58.9,60,Chrm2,SID363571607
43.5,48.3,Espn,SID363572445
